No constants are given. Whether binding was seen depends on the method and setting. Binding seen in cells or lysates may run through a third protein. Some results given as binding are weak or reduced against the parent protein; the word gives no strength. For some of these results: Tags and fused reporters may be left off the sequences shown.

Protein sequences, listed by entry. Tags and fused reporters are not part of them. Lines headed by an entry give the natural chain unless they say otherwise; changes in a name come on top.
UniProt Q8VDZ4, whole entry, looked up, stated change not applied: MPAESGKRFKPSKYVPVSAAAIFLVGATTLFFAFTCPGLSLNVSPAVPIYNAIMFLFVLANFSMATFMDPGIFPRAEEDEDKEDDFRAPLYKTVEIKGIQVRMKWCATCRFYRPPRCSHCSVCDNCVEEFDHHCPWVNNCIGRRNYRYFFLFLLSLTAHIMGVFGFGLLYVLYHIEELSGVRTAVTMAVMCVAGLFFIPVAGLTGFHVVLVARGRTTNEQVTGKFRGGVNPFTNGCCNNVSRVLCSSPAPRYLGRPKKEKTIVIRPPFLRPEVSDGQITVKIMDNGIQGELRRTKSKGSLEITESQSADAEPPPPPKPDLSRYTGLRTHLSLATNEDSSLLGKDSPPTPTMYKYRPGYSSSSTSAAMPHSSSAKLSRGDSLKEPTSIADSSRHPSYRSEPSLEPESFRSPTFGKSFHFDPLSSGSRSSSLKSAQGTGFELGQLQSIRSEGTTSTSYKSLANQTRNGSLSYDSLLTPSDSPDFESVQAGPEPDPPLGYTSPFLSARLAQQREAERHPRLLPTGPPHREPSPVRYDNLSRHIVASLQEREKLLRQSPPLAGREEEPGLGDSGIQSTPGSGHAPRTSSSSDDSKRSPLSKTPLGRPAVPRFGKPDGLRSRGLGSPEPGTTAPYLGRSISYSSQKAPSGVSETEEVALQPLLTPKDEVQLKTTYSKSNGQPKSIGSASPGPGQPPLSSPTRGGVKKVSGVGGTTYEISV
UniProt Q7Z5G4, whole entry: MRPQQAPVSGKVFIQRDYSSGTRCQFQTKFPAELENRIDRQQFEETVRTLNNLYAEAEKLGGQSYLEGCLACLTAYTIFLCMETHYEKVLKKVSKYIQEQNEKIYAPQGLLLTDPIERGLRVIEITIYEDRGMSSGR

Holding throughout (experiment): co-IP
Experiment [1] addresses T1, HA-Zdhhc15 (mouse) (mouse) (UniProt Q8BGJ0).
T1 sequence: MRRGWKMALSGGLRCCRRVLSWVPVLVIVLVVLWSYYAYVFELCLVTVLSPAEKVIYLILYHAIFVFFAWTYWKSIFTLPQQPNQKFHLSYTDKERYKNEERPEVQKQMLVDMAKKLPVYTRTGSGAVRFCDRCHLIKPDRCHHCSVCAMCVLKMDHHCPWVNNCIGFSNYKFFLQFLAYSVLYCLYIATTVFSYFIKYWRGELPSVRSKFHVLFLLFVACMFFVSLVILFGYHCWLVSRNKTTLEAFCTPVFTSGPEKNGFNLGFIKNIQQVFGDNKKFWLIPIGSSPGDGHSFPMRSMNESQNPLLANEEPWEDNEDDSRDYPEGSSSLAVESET

Experiment [2] concerns the target T2, HA-Zdhhc12 (mouse) (mouse) (UniProt Q8VC90).
T2 sequence: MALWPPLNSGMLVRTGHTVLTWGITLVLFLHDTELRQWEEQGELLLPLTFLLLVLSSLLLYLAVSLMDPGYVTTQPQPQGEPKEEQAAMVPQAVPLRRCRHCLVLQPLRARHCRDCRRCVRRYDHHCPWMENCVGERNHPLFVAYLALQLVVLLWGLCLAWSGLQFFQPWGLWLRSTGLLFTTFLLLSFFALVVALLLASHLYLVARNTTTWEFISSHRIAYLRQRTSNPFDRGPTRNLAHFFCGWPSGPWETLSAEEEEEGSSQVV

Experiment [3] addresses T3, HA-Zdhhc21 (mouse) (mouse) (UniProt Q9D270).
T3 sequence: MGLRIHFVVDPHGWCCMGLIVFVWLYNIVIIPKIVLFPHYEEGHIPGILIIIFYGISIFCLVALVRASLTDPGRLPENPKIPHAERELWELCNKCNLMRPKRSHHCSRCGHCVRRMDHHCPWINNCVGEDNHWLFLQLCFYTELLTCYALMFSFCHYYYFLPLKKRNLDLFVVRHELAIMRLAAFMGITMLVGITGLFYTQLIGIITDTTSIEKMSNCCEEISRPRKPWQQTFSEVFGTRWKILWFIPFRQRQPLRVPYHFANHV

Experiment [4] has as its target T4, HA-Zdhhc5^ΔN-term (Δ14-270) (mouse) (UniProt Q8VDZ4).
T4 sequence: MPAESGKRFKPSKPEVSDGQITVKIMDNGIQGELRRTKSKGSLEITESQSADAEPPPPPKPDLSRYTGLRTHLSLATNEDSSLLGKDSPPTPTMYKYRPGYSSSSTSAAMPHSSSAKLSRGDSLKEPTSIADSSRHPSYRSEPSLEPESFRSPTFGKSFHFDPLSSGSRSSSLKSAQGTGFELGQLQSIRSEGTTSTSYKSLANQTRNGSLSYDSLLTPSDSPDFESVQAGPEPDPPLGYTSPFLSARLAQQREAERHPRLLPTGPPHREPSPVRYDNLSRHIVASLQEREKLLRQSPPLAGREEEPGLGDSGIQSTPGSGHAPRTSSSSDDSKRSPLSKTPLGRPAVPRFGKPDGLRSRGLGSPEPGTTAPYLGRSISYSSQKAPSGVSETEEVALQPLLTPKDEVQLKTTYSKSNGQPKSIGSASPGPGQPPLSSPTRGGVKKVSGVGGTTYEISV

The target of experiment [5] is T5, HA-Zdhhc23 (mouse) (mouse) (UniProt Q5Y5T3).
T5 sequence: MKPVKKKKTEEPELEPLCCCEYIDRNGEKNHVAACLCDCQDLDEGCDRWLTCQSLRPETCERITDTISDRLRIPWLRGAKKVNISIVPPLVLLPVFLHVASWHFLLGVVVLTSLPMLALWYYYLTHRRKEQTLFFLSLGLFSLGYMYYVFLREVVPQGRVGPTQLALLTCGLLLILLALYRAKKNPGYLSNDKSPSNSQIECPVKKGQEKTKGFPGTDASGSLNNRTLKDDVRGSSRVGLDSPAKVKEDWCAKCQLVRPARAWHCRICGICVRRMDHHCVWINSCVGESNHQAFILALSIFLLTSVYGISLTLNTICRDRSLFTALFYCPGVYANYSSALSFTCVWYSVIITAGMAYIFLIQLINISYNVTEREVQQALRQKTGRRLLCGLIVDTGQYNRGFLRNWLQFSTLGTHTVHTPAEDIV

Experiment [6] has as its target HA-Zdhhc5^ΔC-term (Δ270-714) (mouse) (UniProt Q8VDZ4).
Experiment [7] addresses Zdhhc5^RNAA (Tyr146Ala, Arg147Ala) (mouse) (UniProt Q8VDZ4).

Regarding “endogenous human GOLGA7 (from UniProt Q7Z5G4 1-137)”, the binding entry in experiment [1] is recorded as “no binding”; in experiment [2] it was “no binding”; in experiment [3], “no binding”; in experiment [4], “no binding”; in experiment [5], “no binding”; in experiment [6] it was “binds”. In experiment [7], the binding result is recorded as “no binding”.

The record behind these values is doi:10.1101/2025.04.28.651057.
